Results reported in PubChem BioAssay AID504834 (National Center for Advancing Translational Sciences (NCATS), 2011).
In all, about 320,000 compounds went through this assay and about 22,000 (6.9%) were called active. The shares of active, inactive and inconclusive entries below differ from those in the screen. The call rests on the fitted dose curve; in most records, active means well fitted inhibition curve with a large enough effect; inconclusive means small, poorly fitted or top-dose-only effect, or another doubt; inactive means no such curve, though single readings can be large or run the other way. Potencies of inconclusive entries are doubtful fits and often do not repeat.

assay: Primary qHTS for delayed death inhibitors of the malarial parasite plastid, 96 hour incubation; details: P. falciparum luciferase reporter growth; series mostly up to 28.7 µM
In short: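 Erythrocytes infected with luciferase-expressing P. falciparum were dispensed at 2% hematocrit and 0.05% parasitemia (final), then incubated with compounds 96 hours at 37 C in 5% CO2. Luminescence after detection reagent addition reported growth.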
Potency means the concentration at half of the fitted maximal effect.

SMILES | Potency
CCc1ccc(S(=O)(=O)N/N=C\c2cn(CC(N)=O)c3ccccc23)cc1 | inconclusive: 11.7 µM [inhibitor, single point]
CC1CCCCC1NC(=O)/C(C#N)=C/c1ccc2c(c1)OCCO2 (stereo not drawn) | inconclusive: 11.7 µM [inhibitor, single point]
CCCC(=O)Nc1ccc(NC(=S)NC(=O)c2ccccc2[N+](=O)[O-])cc1 | inconclusive: 3.29 µM [inhibitor, partial curve, poor fit]
Cc1ccc(Nc2nc(/N=C/N(C)C)n[nH]2)cc1C | inactive
CC1=NN(C(=O)CCc2ccc3c(c2)OCO3)C(O)(C(F)(F)F)C1 (stereo not drawn) | inconclusive: 9.28 µM [inhibitor, partial curve]
CCOc1ccc(Nc2nc(N)c([N+](=O)[O-])c(NCc3ccccc3)n2)cc1 | inconclusive: 4.65 µM [inhibitor, partial curve, poor fit]
CCNC(=S)N(CCc1ccccc1C)Cc1cc2cc(OC)c(OC)cc2[nH]c1=O | inconclusive: 9.28 µM [inhibitor, partial curve, poor fit]
CNC(=O)/C(C#N)=C/c1ccc(-c2ccc(Cl)cc2)o1 | inconclusive: 1.31 µM [inhibitor, full curve, poor fit]
CCN(CC)S(=O)(=O)c1cc(NC(=O)C(=O)c2c(-c3ccccc3)cc3ccccn23)ccc1C | active: 11.7 µM
COc1cc(CCC(=O)Nc2cccc(C(F)(F)F)c2)cc(OC)c1OC | inactive
COc1cc(NC(=O)c2cccc(Br)c2)nc(OC)n1 | active: 2.94 µM
COc1ccc(OC)c(S(=O)(=O)NCC(c2ccco2)N2CCc3ccccc32)c1 (stereo not drawn) | inconclusive: 10.4 µM [inhibitor, partial curve]
COc1ccc(CNC(=O)c2cccnc2)cc1 | inconclusive: 10.4 µM [inhibitor, single point]
CCOC(=O)c1c(NC(=O)CSC(=S)N(C)C)sc(C)c1C | inconclusive: 5.22 µM [inhibitor, partial curve, poor fit]
C=CCNC(=O)c1c(CS(=O)(=O)c2ccccc2)noc1C(=O)NCc1ccccc1 | inactive
CC(=O)N1N=C(c2ccc([N+](=O)[O-])cc2)CC1c1ccccc1Cl (stereo not drawn) | inactive
CC(C)OC(=O)CCCCCN1C(=O)CSC1=S | inconclusive: 18.5 µM [inhibitor, single point]
Cc1nc2c(cc1C#N)C(=O)c1ccccc1-2 | inactive
CC(C)=NNc1nc(-c2ccccc2)cs1 | inactive
COC(=O)c1c(C)nn(-c2ccccc2)c1-n1cccc1 | inconclusive: 18.5 µM [inhibitor, single point]
CC(=O)N=c1sc2nc3ccccc3nc2n1N(C(C)=O)C(C)=O | inconclusive: 1.85 µM [inhibitor, full curve]
CC1Sc2ccc(S(=O)(=O)CCC(=O)NC3CCCCC3C)cc2NC1=O (stereo not drawn) | inactive
O=[N+]([O-])c1cccc(-c2ccc(CN3CCN(c4ccccc4)CC3)o2)c1 | inactive
Cc1cc(/C=N/n2cnnc2)c(C)n1-c1ccc2c(c1)OCO2 | active: 10.4 µM
O=C(NCc1ccco1)c1ccc2nccnc2c1 | inconclusive: 10.4 µM [inhibitor, partial curve]

Another view of 3 compounds above:
CCc1ccc(S(=O)(=O)N/N=C\c2cn(CC(N)=O)c3ccccc23)cc1
  Potency: inconclusive: 11.7 µM [inhibitor, single point]
CC1CCCCC1NC(=O)/C(C#N)=C/c1ccc2c(c1)OCCO2 (stereo not drawn)
  Potency: inconclusive: 11.7 µM [inhibitor, single point]
CCCC(=O)Nc1ccc(NC(=S)NC(=O)c2ccccc2[N+](=O)[O-])cc1
  Potency: inconclusive: 3.29 µM [inhibitor, partial curve, poor fit]

(listing goes on)

SMILES | Potency
COc1cc(CN(C)CC2CCCN(CCc3cccc(C(F)(F)F)c3)C2)ccc1O (stereo not drawn) | inconclusive: 18.5 µM [inhibitor, single point]
C=C1CCN([C@H](C(=O)OCc2cccc(C)c2)C(C)C)S(=O)(=O)c2ccccc21 | inconclusive: 8.28 µM [inhibitor, partial curve]
Cc1onc(-c2ccccc2Cl)c1C(=O)Nc1ccccc1C(=O)NC(C)C | inactive
COc1ccccc1NS(=O)(=O)c1ccc(C)c(NC(=O)c2ccc(S(=O)(=O)N3CCCCCC3)cc2)c1 | inconclusive: 18.5 µM [inhibitor, single point]
Cc1nc2ccc(NC(=O)/C=C/C(=O)O)cc2nc1C | inconclusive: 18.5 µM [inhibitor, single point]
CC(=O)c1ccccc1OCCCCN1CCCCC1 | inconclusive: 2.62 µM [inhibitor, single point]
CC(=O)c1c(C)[nH]c(C(=O)Nc2cccc3ccccc23)c1C | inconclusive: 10.4 µM [inhibitor, partial curve]
Cc1[nH]c2ccc(C(=O)NCCN3CCCCCC3)cc2c1C | inconclusive: 18.5 µM [inhibitor, single point]
COc1cccc(OC)c1OCC(C)CNCC1CCCO1 (stereo not drawn) | inconclusive: 11.7 µM [inhibitor, partial curve, poor fit]
Cc1ccc(NC(=O)C(C)OC(=O)/C=C/c2ccccc2)cc1 (stereo not drawn) | inactive
CC(C)Cn1c(CCC(N)=O)nnc1SC(C)C(=O)Nc1ccc2c(c1)OCO2 (stereo not drawn) | inactive
Cc1ccc(C(=O)CSc2nnc(-c3ccncc3)n2C)cc1 | inconclusive: 14.7 µM [inhibitor, partial curve, poor fit]
Cc1ccc(-n2nnnc2SCC(=O)NCC2CCCO2)cc1C (stereo not drawn) | inactive
COc1ccc(C(=O)NC(=S)N2CC(C)OC(C)C2)cc1 (stereo not drawn) | inactive
COC(=O)C(C(=O)OC)C(c1ccccc1)C(C(=O)c1ccccc1)[N+](=O)[O-] (stereo not drawn) | inactive
CS(=O)(=O)Cc1ccc(C(=O)N2CCCC2c2cccs2)cc1 (stereo not drawn) | inactive
COC(=O)C1=C(c2ccc(-c3ccccc3)c(F)c2)C[C@@H]2CC[C@H]1N2C(=O)NCc1cc(C)oc1C(F)(F)F | inconclusive: 3.29 µM [inhibitor, full curve]
O=C(Nc1ccc(Oc2cccnc2)cc1)C1CCN(Cc2cccc(Cl)c2)CC1 | inactive
CCC1(C)N(O)C(C)(C)C(c2ccc(F)cc2)=[N+]1[O-] (stereo not drawn) | inconclusive: 18.5 µM [inhibitor, single point]
CN(C)S(=O)(=O)c1cccc(-c2cn3cccnc3n2)c1 | inactive
COc1cccc(/C=N/Nc2ncnc(Cl)c2N)c1O | active: 2.62 µM
CC1=CCC2C(=O)N(c3cccc(C(=O)Nc4ccc(Cl)cc4)c3)C(=O)C2C1 (stereo not drawn) | inconclusive: 14.7 µM [inhibitor, single point]
C=CCNC(=O)CSc1ncc2c(n1)-c1c(csc1SC)CC2 | inactive
FC(F)Oc1ccc(-n2cc(-c3ccc(Cl)cc3)[n+]3c2CCCCC3)cc1 | inconclusive: 0.329 µM [inhibitor, full curve, poor fit]
O=C1CSC(c2ccccc2F)N1c1ccccc1 (stereo not drawn) | active: 8.28 µM

SMILES | Potency
Cc1cc(NC(=O)CSCC(=O)N(c2cccc(Cl)c2)C(C(=O)NC2CCCCC2)c2ccc(O)c(O)c2)no1 (stereo not drawn) | active: 9.28 µM
CCOC(=O)Cc1nnc(NC(=O)CSc2ccc(C)cc2)s1 | inactive
CCOc1ccccc1/C=N/Nc1ccnc(=O)[nH]1 | inconclusive: 9.28 µM [inhibitor, partial curve, poor fit]
Cn1c2cc(B(O)O)sc2c2cnn(Cc3c(F)cccc3Cl)c(=O)c21 | active: 10.4 µM
CC(C)C(NS(=O)(=O)c1ccc2c(c1)Cc1cc(S(=O)(=O)NC(C(=O)O)C(C)C)ccc1-2)C(=O)O (stereo not drawn) | inconclusive: 18.5 µM [inhibitor, single point]
CN(C)c1nc(-c2ccccn2)nnc1-c1ccccc1 | active: 2.08 µM
S=C(S)N1CCCC1 | inconclusive: 13.1 µM [inhibitor, partial curve, poor fit]
Cn1ncc(Cl)c1C(=O)Nc1ccc2c(c1)CCC2 | inactive
Nc1ccc(Oc2ccc([N+](=O)[O-])cc2[N+](=O)[O-])cc1 | inconclusive: 5.22 µM [inhibitor, partial curve]
CCN(C(=O)COc1ccccc1)c1nnc(-c2cccnc2)s1 | inconclusive: 18.5 µM [inhibitor, single point]
COc1ccccc1CN(C)C(=O)c1cc2ccccc2o1 | inactive
O=C(Cn1nnc(-c2cccs2)n1)NNC(=O)c1ccccc1Cl | inactive
COCC1CCCCN1Cc1cn(-c2ccccc2)nc1-c1ccc2c(c1)OCO2 (stereo not drawn) | inconclusive: 18.5 µM [inhibitor, single point]
C=C1[C@H]2CC[C@H]3[C@]4(C)C[C@H](O[C@H]5O[C@H](CO)[C@@H](OS(=O)(=O)O)[C@H](OS(=O)(=O)O)[C@H]5OC(=O)CC(C)C)C[C@@H](C(=O)O)[C@H]4CC[C@]3(C2)[C@H]1O | inconclusive: 18.5 µM [inhibitor, single point]
CN(C)CCNC(=O)c1scc2c1CCCC2 | inactive
Cc1cc(C=O)c(C)n1-c1ccc(N2CCCCC2)c([N+](=O)[O-])c1 | inconclusive: 13.1 µM [inhibitor, single point]
Clc1ccccc1CSc1nncn1NC/C=C/c1ccccc1 | inactive
Cc1nn(Cc2ccccc2Cl)c(C)c1C(=O)N(C)CC(=O)Nc1cccc(F)c1 | inconclusive: 14.7 µM [inhibitor, single point]
CCCCN(C(=O)c1ccco1)C1CCS(=O)(=O)C1 (stereo not drawn) | inconclusive: 0.0037 µM [inhibitor, full curve, poor fit]
O=C(NCCc1ccco1)C(=O)NCC1OCCCN1S(=O)(=O)c1ccccc1 (stereo not drawn) | inconclusive: 14.7 µM [inhibitor, single point]
O=C(NCc1ccc2c(c1)OCO2)c1ccc(Br)o1 | inactive
CCC(C)CCN1C(Nc2ccccc2)=NC[C@@H]1Cc1ccccc1 (stereo partly drawn) | inconclusive: 11.7 µM [inhibitor, single point]
CCOC(=O)C1CCN(C(=O)c2cccc(NS(=O)(=O)c3ccc(Br)cc3)c2)CC1 | inconclusive: 1.17 µM [inhibitor, partial curve, poor fit]
